Experimental data from US20030093119A1, “Eyelet reinforcement at the tissue-suture interface” (priority 2001, published 2003).

How the values were obtained:
canine flexor tendons = experiment: Single suture loop failure in locally reinforced eyelets (suture pullout on MTS machine); conditions: eyelet reinforced by local injection via 22-gauge needle; 4/0 nylon single loop; distracted at 20 mm/min
tendon [1] = experiment: Tendon stiffness / localized elongation on MTS servohydraulic testing machine with DVRT; conditions: under a 50 Newton load; tendon cross-linked with EDC; gage length approx. 30 mm
tendon [2] = experiment: Single suture loop failure (gripping strength) in whole EDC-treated tendon; conditions: whole tendon EDC cross-linked; distracted at 20 mm/min until pullout

SMILES: CCN=C=NCCCN(C)C [EDC]
- average maximum force (single suture loop failure) (canine flexor tendons): 11.5±2.4 Newtons
- localized tendon elongation within the DVRT portion (tendon [1]): about 0.5 mm
- failure mode of single suture loop (tendon [2]): suture breakage at the peak load
